{
  "source": "patent US20100069308A1",
  "about": "“Surfaces containing antibacterial polymers” (priority 2008, published 2010)",
  "origin": "cited, not measured here",
  "details_in_all_cases": "cited from earlier work",
  "key": {"[1]": {"system": "Psuedomonas aeruginosa"}, "[2]": {"system": "Staphylococcus aureus"}, "[3]": {"system": "Escherichia coli"}, "[4]": {"system": "Haemophilus influenzae"}, "[5]": {"system": "Enterococcus faecalis"}, "[6]": {"system": "Streptococcus pneumoniae"}},
  "note": "For at least one compound, name, drawing or mass did not settle the structure. Peptide text beside a SMILES is read from it.",
  "data": [
    {"smiles": "CC[C@H](C)[C@H](NC(=O)CN)C(=O)NCC(=O)N[C@@H](CCCCN)C(=O)N[C@@H](Cc1ccccc1)C(=O)N[C@@H](CC(C)C)C(=O)N[C@@H](CCCCN)C(=O)N[C@@H](CCCCN)C(=O)N[C@@H](C)C(=O)N[C@@H](CCCCN)C(=O)N[C@@H](CCCCN)C(=O)N[C@@H](Cc1ccccc1)C(=O)NCC(=O)N[C@@H](CCCCN)C(=O)N[C@@H](C)C(=O)N[C@@H](Cc1ccccc1)C(=O)N[C@H](C(=O)N[C@@H](CCCCN)C(=O)N[C@H](C(=O)N[C@@H](CC(C)C)C(=O)N[C@@H](CCCCN)C(=O)N[C@@H](CCCCN)C(N)=O)[C@@H](C)CC)C(C)C", "note": "[Pexiganan, reference compound] (H-GIGKFLKKAKKFGKAFVKILKK-NH2)", "values": [
      {"measurement": "MIC", "setting": "[1]", "result": "3.2 to 6.5", "unit": "µM"},
      {"measurement": "MIC", "setting": "[2]", "result": "6.5 to 13", "unit": "µM"},
      {"measurement": "MIC", "setting": "[3]", "result": "3.2 to 6.5", "unit": "µM"},
      {"measurement": "MIC", "setting": "[4]", "result": 3.2, "unit": "µM"},
      {"measurement": "MIC", "setting": "[5]", "result": 26, "unit": "µM"},
      {"measurement": "MIC", "setting": "[6]", "result": 13, "unit": "µM"}
    ]}
  ]
}
